Data source: PubChem BioAssay AID1259308 (NCATS, 2017)
Here is one part, drawn at random, of about 59,000 deposited reagents. In the full data, about 1,510 (2.6%) were called active. 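Calls use total luciferase alone and ignore viability, so some active siRNAs may act by altering cell number.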 The numbers tell different reagents against one gene apart. Further read-outs or replicates are left out here.

Aim: 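Knock-downs that increase output of a recombinant reporter protein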 (primary screen)
Cells: human HEK293 embryonic kidney cells stably expressing firefly luciferase (HEK-CMV-Luc2-Hygro)
Knock-down reagent: single siRNA against human genes, 0.8 pmol siRNA per well
Duration: 72 h
Measurement: 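Luciferase light (ONE-Glo) measured on one replicate plate set and viability (CellTiter-Glo) on the other, scaled to a negative control siRNA, with robust z-scores and luciferase per cell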
Reading the numbers: total luciferase, z-score and total luciferase, % of control: higher = more reporter protein produced
Call rule: 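An siRNA counts as active if its total luciferase robust z-score exceeds 3; genes with two or more such siRNAs out of three were retested with fresh siRNAs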
Meaning of the calls: active = raised luciferase; inactive = no rise

gene | siRNA no. | total luciferase, z-score | total luciferase, % of control | outcome
NUCLEOLIN | 1 | -0.109 | 79.7 | inactive
NUCLEOLIN | 2 | -0.0571 | 80.7 | inactive
NUCLEOLIN | 3 | 0.487 | 91.6 | inactive
IFI27L2 | 1 | -0.603 | 69.9 | inactive
IFI27L2 | 2 | -1.02 | 61.5 | inactive
IFI27L2 | 3 | -0.0995 | 79.9 | inactive
TIPE1 | 1 | 0.466 | 91.2 | inactive
TIPE1 | 2 | 2.04 | 122 | inactive
TIPE1 | 3 | 0.751 | 96.8 | inactive
ITGA7 | 1 | -0.167 | 78.6 | inactive
ITGA7 | 2 | 1.82 | 118 | inactive
ITGA7 | 3 | -1.41 | 53.8 | inactive
CEACAM6 | 1 | 1.75 | 117 | inactive
CEACAM6 | 2 | -1.67 | 48.7 | inactive
CEACAM6 | 3 | 0.135 | 84.6 | inactive
C2CD4C | 1 | 0.556 | 92.9 | inactive
C2CD4C | 2 | -1.23 | 57.5 | inactive
C2CD4C | 3 | -1.41 | 53.9 | inactive
ANXA9 | 1 | 0.33 | 88.5 | inactive
ANXA9 | 2 | 0.917 | 100 | inactive
ANXA9 | 3 | 0.882 | 99.4 | inactive
MLLT3 | 1 | -1.79 | 46.2 | inactive
MLLT3 | 2 | 0.147 | 84.8 | inactive
MLLT3 | 3 | -0.53 | 71.3 | inactive

A stretch taken from the entries so far:
gene | siRNA no. | total luciferase, z-score | total luciferase, % of control | outcome
TIPE1 | 1 | 0.466 | 91.2 | inactive
TIPE1 | 2 | 2.04 | 122 | inactive
TIPE1 | 3 | 0.751 | 96.8 | inactive
ITGA7 | 1 | -0.167 | 78.6 | inactive
ITGA7 | 2 | 1.82 | 118 | inactive

The listing continues.
gene | siRNA no. | total luciferase, z-score | total luciferase, % of control | outcome
PINX1 | 1 | 0.738 | 96.6 | inactive
PINX1 | 2 | 0.329 | 88.4 | inactive
PINX1 | 3 | -0.334 | 75.2 | inactive
LOC729047 (retired record) | 1 | 2.27 | 127 | inactive
LOC729047 (retired record) | 2 | 0.531 | 92.5 | inactive
LOC729047 (retired record) | 3 | -0.361 | 74.7 | inactive
FLJ37786 (retired record) | 1 | 0.483 | 91.5 | inactive
FLJ37786 (retired record) | 2 | -0.0451 | 81 | inactive
FLJ37786 (retired record) | 3 | 1.22 | 106 | inactive
TMEM26 | 1 | -0.246 | 77 | inactive
TMEM26 | 2 | -1.68 | 48.4 | inactive
TMEM26 | 3 | 0.0549 | 83 | inactive
BCAS2 | 1 | 0.802 | 97.8 | inactive
BCAS2 | 2 | 1.18 | 105 | inactive
BCAS2 | 3 | 2 | 122 | inactive
